The structures appear in SMILES notation. The list is a part of this screen's results and no random one: it gathers tests that were run many times, whatever their T/C, doses with no T/C, and many T/C values between a quarter and a half above the control. Further doses and runs are listed elsewhere. T/C: endpoint of the treated group in % of that of the vehicle group. Some doses have a count of surviving animals in place of a T/C: the source files T/C as zero there, which appears to mark a toxic dose or a test without result, not a measured value. Some survivor counts are full or nearly so, which does not show that the dose was tolerated: the source hardly ever lists a survival T/C far under the control, and the zero likely stands for such cases as well. Counts of survivors are from the toxicity check (mostly the fifth day) where no day follows; animals may have died later. Schedules are NCI's codes, read here as Q, the interval in days (D) or hours (H), X, the number of doses. Signs of the kind (2×) say how often a value occurs here. For survival time, the PubChem record calls one and a half times the control and up active, and a quarter to a half above the control has no call in these data; cut-offs in other NCI protocols can differ. Some entries were tested several times; their values stand side by side, smallest first.

In the experiment the test system is P388 leukemia ip, CD2F1 mice, survival T/C. The experiment can be described thus: NCI In Vivo Anticancer Drug Screen. Data for tumor model P388 Leukemia (intraperitoneal) in CD2F1 (CDF1) mice. The conditions noted are these: T/C endpoint: median survival time, higher T/C = longer survival.
Where [1] appears, read: dose: 30.0 mg/kg/injection, schedule: Q01DX005 (ip), vehicle: saline with Tween-80.
Where [2] appears, read: dose: 60.0 mg/kg/injection, schedule: Q01DX005 (ip), vehicle: saline with Tween-80.
The mark [3] stands for this setting: dose: 120.0 mg/kg/injection, schedule: Q01DX005 (ip), vehicle: saline with Tween-80.
The mark [4] stands for this setting: dose: 240.0 mg/kg/injection, schedule: Q01DX005 (ip), vehicle: saline with Tween-80.
Setting [5] is: dose: 100.0 mg/kg/injection, schedule: Q01DX009 (ip), vehicle: saline with Tween-80.
The mark [6] stands for this setting: dose: 25.0 mg/kg/injection, schedule: Q04DX003 (ip), vehicle: saline.
[7] abbreviates: dose: 200.0 mg/kg/injection, schedule: Q01DX009 (ip), vehicle: saline.

Regarding `O=C1C2C3CCC(O3)C2C(=O)N1CC#CCCl` (configuration not stated), the survivor count is, setting by setting: under setting [1], 0 of 6; under setting [2], 0 of 6; under setting [3], 0 of 6; under setting [4], 0 of 6.
Regarding `COc1cc2c(cc1OC)-c1c(O)c(OC)cc3c1C(C2)N(C)CC3` (configuration not stated), the T/C (dose: 4.5 mg/kg/injection, schedule: Q01DX009 (ip), vehicle: Klucel (hydroxypropylcellulose) (HPC)) was 127 % of control.
Take `NC(=S)c1ccccc1N=Cc1ccccn1`: the survivor count (dose: 400.0 mg/kg/injection, schedule: Q04DX003 (ip), vehicle: Klucel (hydroxypropylcellulose) (HPC)) was 5 of 6.
For `c1ccc(C23CN(Cc4ccccc42)Cc2ccccc23)cc1`, under “dose: 400.0 mg/kg/injection, schedule: Q01DX001 (ip), vehicle: saline with Tween-80”, the survivor count was 1 of 6.
As for `C=C(C)C1NC(=O)C(C(O)c2cc(O)c(O)c(Cl)c2)N(C)C(=O)/C(=C/C(=O)O)NC(=O)/C(=C(\C)CC)NC(=O)C2C=CCN2C(=O)C(C(C)(O)CC)NC1=O` (configuration not stated), where the note is “dose: 5.0 mg/kg/injection, schedule: Q01DX005 (ip), vehicle: Klucel (hydroxypropylcellulose) (HPC)”, the survivor count is listed as 6 of 6.
As for `N#Cc1nn(-c2ccccc2)sc1=N`, the survivor count (dose: 200.0 mg/kg/injection, schedule: Q01DX009 (ip), vehicle: other) is given as 2 of 6.
As for `c1ccc([As](c2ccccc2)c2cccc[c]2[Bi]([c]2ccccc2)[c]2ccccc2)cc1`, the survivor count (dose: 50.0 mg/kg/injection, schedule: Q01DX009 (ip), vehicle: saline with Tween-80) is listed as 6 of 6; the survivor count under setting [5] is given as 3 of 6; the survivor count (dose: 200.0 mg/kg/injection, schedule: Q01DX009 (ip), vehicle: saline with Tween-80) is given as 1 of 6.
On to `COc1cc2c(cc1OC)-c1c3c(cc4c1[C@@H](C2)N(C)CC4)OCO3`, for which the T/C (dose: 100.0 mg/kg/injection, schedule: Q01DX009 (ip), vehicle: distilled water + Tween-80) was 127 and 131 % of control. Also, the survivor count under setting [5] is 4 of 6; the survivor count (dose: 150.0 mg/kg/injection, schedule: Q01DX009 (ip), vehicle: distilled water + Tween-80) is 3 of 5; the survivor count (dose: 200.0 mg/kg/injection, schedule: Q01DX009 (ip), vehicle: distilled water + Tween-80) was 0 of 6.
With `Cc1cccc(C)c1NC(=O)Nc1cccc(C#N)c1`, the survivor count was 6 of 6 under setting [2] and 6 of 6 under setting [3].
Turning to `Cc1ccc(C)[nH][nH]c(N)n1`, the survivor count is recorded as 1 of 6 (dose: 200.0 mg/kg/injection, schedule: Q01DX009 (ip), vehicle: water) and 0 of 6 (dose: 400.0 mg/kg/injection, schedule: Q01DX009 (ip), vehicle: water).
With `Cc1c2cc[n+](C)cc2c(C)c2c1[nH]c1ccc(O)cc12`, the T/C is, setting by setting: (dose: 0.25 mg/kg/injection, schedule: Q04DX003 (ip), vehicle: water) 127 % of control; (dose: 0.5 mg/kg/injection, schedule: Q04DX003 (ip), vehicle: water, evaluated on day 30) 136 % of control; (dose: 0.5 mg/kg/injection, schedule: Q04DX003 (ip), vehicle: water, evaluated on day 35) 130 % of control; (dose: 0.78 mg/kg/injection, schedule: Q04DX002 (ip), vehicle: saline) 138 % of control; (dose: 0.97 mg/kg/injection, schedule: Q04DX002 (ip), vehicle: saline) 132 % of control; (dose: 1.0 mg/kg/injection, schedule: Q04DX003 (ip), vehicle: water) 142 % of control. The T/C was 142 % of control (dose: 1.3 mg/kg/injection, schedule: Q04DX002 (ip), vehicle: saline); 135 % of control (dose: 1.62 mg/kg/injection, schedule: Q04DX002 (ip), vehicle: saline); 148 % of control (dose: 2.16 mg/kg/injection, schedule: Q04DX002 (ip), vehicle: saline); 143 % of control (dose: 2.7 mg/kg/injection, schedule: Q04DX002 (ip), vehicle: saline); 129 % of control (dose: 6.25 mg/kg/injection, schedule: Q04DX003 (ip), vehicle: saline); 132 % of control under setting [6]. Moreover, the survivor count reads like this: (dose: 4.0 mg/kg/injection, schedule: Q04DX003 (ip), vehicle: water) 6 of 6 (2×); (dose: 12.5 mg/kg/injection, schedule: Q04DX003 (ip), vehicle: saline) 6 of 6; under setting [6], 4 of 6; (dose: 200.0 mg/kg/injection, schedule: Q04DX003 (ip), vehicle: saline) 6 of 6.
For the compound `O=c1c2cccc3cccc(c32)c2nc3ccccc3n12`, the T/C is, setting by setting: (dose: 6.25 mg/kg/injection, schedule: Q01DX009 (ip), vehicle: saline with Tween-80) 130 % of control; (dose: 9.4 mg/kg/injection, schedule: Q01DX009 (ip), vehicle: saline with Tween-80) 129 % of control; (dose: 12.5 mg/kg/injection, schedule: Q01DX009 (ip), vehicle: saline with Tween-80) 126 % of control.
Consider `CCCCCCCCCCCCc1ccc(C[N+](C)(C)CC[N+](C)(C)Cc2ccc(CCCCCCCCCCCC)cc2)cc1`, for which the survivor count is on record as 0 of 6 (dose: 100.0 mg/kg/injection, schedule: Q01DX009 (ip), vehicle: saline) and 0 of 6 under setting [7].
As for `O=C1CS(=O)(=O)C(c2ccccc2F)N1N1C(=O)CS(=O)(=O)C1c1ccccc1F` (configuration not stated), the survivor count under setting [1] is 6 of 6, the survivor count under setting [2] was 6 of 6, the survivor count under setting [3] is reported as 6 of 6 and the survivor count under setting [4] is listed as 6 of 6.
For the compound `OC1COCCC(O)(CNCc2ccccc2)C1O` (configuration not stated), the survivor count under setting [7] is reported as 3 of 6.
As to `CCOC(=O)C1=C(C)NC(C)=C(C(=O)OCC)C1C`, the survivor count (dose: 400.0 mg/kg/injection, schedule: Q01DX009 (ip), vehicle: saline) was 5 of 6.
`c1ccc2c[s+]ccc2c1`: the survivor count (dose: 200.0 mg/kg/injection, schedule: Q01DX009 (ip), vehicle: suspension in saline) was 6 of 6 and the survivor count (dose: 400.0 mg/kg/injection, schedule: Q01DX009 (ip), vehicle: suspension in saline) is 1 of 6.
Consider `OC1CC2CCC(C1)N2c1ccccc1` (configuration not stated), for which the survivor count (dose: 200.0 mg/kg/injection, schedule: Q01DX005 (ip), vehicle: saline) was 0 of 6.
Consider `CN(C)CC(O)c1ccc2cc(Br)c3ccccc3c2c1` (configuration not stated), for which the survivor count by setting is: (dose: 100.0 mg/kg/injection, schedule: Q01DX005 (ip), vehicle: saline with Tween-80) 1 of 5; (dose: 200.0 mg/kg/injection, schedule: Q01DX005 (ip), vehicle: saline with Tween-80) 0 of 5.

For the origin of these results see PubChem BioAssay AID330 (DTP/NCI, 2004).
